The results in this text go back to PubChem BioAssay AID248 (DTP/NCI, 2004).

In this assay the test system is L1210 leukemia ip in BDF1 mice, survival T/C. The assay can be described thus: NCI In Vivo Anticancer Drug Screen. Data for tumor model L1210 Leukemia (intraperitoneal) in B6D2F1 (BDF1) mice. The settings on record: T/C endpoint: mean survival time, higher T/C = longer survival.
[1] abbreviates: dose: 400.0 mg/kg/injection, schedule: Q04DX003 (ip), vehicle: saline with Tween-80.
[2] abbreviates: dose: 200.0 mg/kg/injection, schedule: Q04DX003 (ip), vehicle: saline with Tween-80.
Setting [3] is: dose: 200.0 mg/kg/injection, schedule: Q01DX001 (ip), vehicle: saline.
Setting [4] is: dose: 400.0 mg/kg/injection, schedule: Q01DX001 (ip), vehicle: carboxymethylcellulose (CMC).
Where [5] appears, read: dose: 400.0 mg/kg/injection, schedule: Q01DX001 (ip), vehicle: saline.
Where [6] appears, read: dose: 400.0 mg/kg/injection, schedule: Q04DX003 (ip), vehicle: acetone.
Setting [7] is: dose: 200.0 mg/kg/injection, schedule: Q04DX003 (ip), vehicle: saline.
[8] abbreviates: dose: 400.0 mg/kg/injection, schedule: Q04DX003 (ip), vehicle: saline.

The list is a part of this screen's results and no random one: it gathers tests that were run many times, whatever their T/C, doses with no T/C, and many T/C values between a quarter and a half above the control. Further doses and runs are listed elsewhere. T/C is the treated group as % of the vehicle group. Some doses have a count of surviving animals in place of a T/C: the source holds a T/C of zero for them, seemingly a mark for toxic or unscored doses. Some doses without a T/C left all or most animals alive at the check, yet need not have been tolerated: survival well below the control is almost never listed, so the zero probably covers shortened survival too. Counts of survivors are from the toxicity check (mostly the fifth day) where no day follows; animals may have died later. Schedules are NCI's codes, taken here to give the interval after Q, in days (D) or hours (H), and the number of doses after X. Some entries hold several experiments; their values stand side by side, smallest first. Some schedule codes hold Z or #, which are not explained here.

Take `Cc1cc(N=NC(=N)N)c(C(C)C)cc1NN=C(N)N`: the survivor count (dose: 240.0 mg/kg/injection, schedule: Q01DX Z (ip), vehicle: carboxymethylcellulose (CMC)) is recorded as 0 of 6; the survivor count (dose: 240.0 mg/kg/injection, schedule: Q01DX Z (oral), vehicle: carboxymethylcellulose (CMC)) was 3 of 6; the survivor count (dose: 480.0 mg/kg/injection, schedule: Q01DX Z (ip), vehicle: carboxymethylcellulose (CMC)) is recorded as 0 of 6.
Consider `Cc1cc(C(=O)c2ccccn2)c2cccc(C(F)(F)F)c2n1`, for which the survivor count under setting [1] is 3 of 6.
In the case of `CCOc1ccccc1NC1=C(OC)C(=O)C(Nc2ccccc2OCC)=C(OC)C1=O`, the survivor count (dose: 200.0 mg/kg/injection, schedule: Q01DX009 (ip), vehicle: Klucel (hydroxypropylcellulose) (HPC)) is 6 of 6.
For `O=C1C=C2C(=CCOC2O)O1` (stereo unspecified), the survivor count (dose: 8.0 mg/kg/injection, schedule: Q01DX009 (ip), vehicle: Klucel (hydroxypropylcellulose) (HPC)) is 1 of 6.
For the compound `CSC(=O)N=Nc1c(O)n(C)c(=O)n(C)c1=O`, the survivor count runs as follows: (dose: 100.0 mg/kg/injection, schedule: Q01DX009 (ip), vehicle: saline with Tween-80) 3 of 3; (dose: 200.0 mg/kg/injection, schedule: Q01DX009 (ip), vehicle: saline with Tween-80) 0 of 3.
Consider `O=[N+]([O-])c1ccc(OCc2ccccc2)c(Cl)c1`, for which the survivor count runs as follows: under setting [2], 3 of 6; under setting [1], 1 of 6.
`NNC(=O)OC12CC3CC(CC(C3)C1)C2`: the survivor count is, setting by setting: (dose: 150.0 mg/kg/injection, schedule: Q01DX009 (ip), vehicle: saline with Tween-80) 3 of 6; under setting [2], 3 of 6; (dose: 225.0 mg/kg/injection, schedule: Q01DX009 (ip), vehicle: saline with Tween-80) 0 of 6; (dose: 335.0 mg/kg/injection, schedule: Q01DX009 (ip), vehicle: saline with Tween-80) 0 of 6; under setting [1], 0 of 6.
For the compound `C[n+]1c(-c2ccc(Cl)c(Cl)c2)c2cc(N)ccc2c2ccccc21`, the survivor count is on record as 6 of 6 (dose: 25.0 mg/kg/injection, schedule: Q01DX009 (ip), vehicle: water); 5 of 6 (dose: 50.0 mg/kg/injection, schedule: Q04DX003 (ip), vehicle: water); 0 of 6 (dose: 100.0 mg/kg/injection, schedule: Q04DX003 (ip), vehicle: water); 0 of 6 (dose: 200.0 mg/kg/injection, schedule: Q04DX003 (ip), vehicle: water); 0 of 6 (dose: 400.0 mg/kg/injection, schedule: Q04DX003 (ip), vehicle: water).
Take `CCc1ccc2[nH]c(C(=O)O)cc2c1`: the survivor count under setting [3] was 3 of 6.
In the case of `Nc1[nH]c(=O)ncc1F`, the survivor count runs as follows: under setting [4], 1 of 6; (dose: 800.0 mg/kg/injection, schedule: Q01DX001 (ip), vehicle: carboxymethylcellulose (CMC)) 0 of 6.
Consider `CC(C)(c1ccccc1)[N+](C)(C)C`, for which the survivor count (dose: 32.0 mg/kg/injection, schedule: Q01DX Z (ip), vehicle: saline) is on record as 0 of 6; the survivor count (dose: 50.0 mg/kg/injection, schedule: Q01DX001 (ip), vehicle: saline) is on record as 0 of 4; the survivor count (dose: 100.0 mg/kg/injection, schedule: Q01DX001 (ip), vehicle: saline) was 0 of 4; the survivor count (dose: 100.0 mg/kg/injection, schedule: Q04DX003 (ip), vehicle: saline with Tween-80) is recorded as 0 of 6; the survivor count under setting [3] is 0 of 4; the survivor count under setting [2] was 0 of 6. The survivor count by setting is: under setting [5], 0 of 4; under setting [1], 0 of 6.
As to `COc1ccc(-c2nc(N)ncc2CSC)cc1`, under setting [1], the survivor count is recorded as 3 of 3.
With `COC(C)CCC(=O)O.[Ag]` (stereo unspecified), the survivor count runs as follows: (dose: 50.0 mg/kg/injection, schedule: Q04DX003 (ip), vehicle: saline with Tween-80) 6 of 6; (dose: 100.0 mg/kg/injection, schedule: Q04DX003 (ip), vehicle: acetone) 0 of 6; (dose: 200.0 mg/kg/injection, schedule: Q04DX003 (ip), vehicle: acetone) 0 of 6; under setting [6], 0 of 6.
`CCN(CC)CCn1c2ccccc2c2cnccc21`: the survivor count runs as follows: (dose: 100.0 mg/kg/injection, schedule: Q04DX003 (ip), vehicle: saline) 3 of 6; under setting [7], 1 of 6; under setting [8], 0 of 6.
For `CCOC(=O)C[n+]1ccc(C(=O)c2cc3ccccc3[nH]2)cc1`, the survivor count (dose: 400.0 mg/kg/injection, schedule: Q01DX009 (ip), vehicle: saline with Tween-80) was 1 of 6.
With `Nc1cc(F)c2c(c1)Cc1cc(F)ccc1-2`, under setting [4], the survivor count is reported as 0 of 4.
As to `C=CC[N+]12CCCC1C(=C)CC2` (stereo unspecified), the survivor count is, setting by setting: (dose: 100.0 mg/kg/injection, schedule: Q01DX009 (ip), vehicle: saline) 0 of 3; (dose: 200.0 mg/kg/injection, schedule: Q01DX009 (ip), vehicle: saline) 0 of 3.
As to `ClCCN(CCCl)CCn1cnc2c(SCc3ccccc3)ncnc21`, the survivor count is, setting by setting: (dose: 45.0 mg/kg/injection, schedule: Q01DX Z (ip), vehicle: carboxymethylcellulose (CMC)) 0 of 6; (dose: 67.0 mg/kg/injection, schedule: Q01DX Z (ip), vehicle: carboxymethylcellulose (CMC)) 0 of 6 and 3 of 6; (dose: 100.0 mg/kg/injection, schedule: Q01DX Z (ip), vehicle: carboxymethylcellulose (CMC)) 0 of 6; (dose: 150.0 mg/kg/injection, schedule: Q01DX Z (ip), vehicle: carboxymethylcellulose (CMC)) 0 of 6.
Consider `CC(O)C(NC(=O)OCc1ccccc1)C(=O)NC(CO)C(=O)NN` (stereo unspecified), for which the survivor count is, setting by setting: under setting [3], 1 of 4; under setting [5], 0 of 6 and 1 of 4.
`C=CCN(CC=C)C(=O)CCN1CC1`: the survivor count (dose: 40.0 mg/kg/injection, schedule: Q01DX Z (ip), vehicle: saline) is recorded as 2 of 7; the survivor count (dose: 80.0 mg/kg/injection, schedule: Q01DX001 (ip), vehicle: saline) is 0 of 7; the survivor count (dose: 80.0 mg/kg/injection, schedule: Q01DX Z (ip), vehicle: saline) is given as 0 of 7; the survivor count (dose: 80.0 mg/kg/injection, schedule: Q01DX Z (oral), vehicle: saline) was 2 of 7; the survivor count (dose: 160.0 mg/kg/injection, schedule: Q01DX001 (ip), vehicle: saline) is recorded as 0 of 7.
As to `CN1C(=O)N(C)C(=O)C(O)(C2(O)C(=O)N(C)C(=O)N(C)C2=O)C1=O`, the survivor count is reported as 3 of 6 (dose: 75.0 mg/kg/injection, schedule: Q01DX001 (ip), vehicle: other); 0 of 6 (dose: 150.0 mg/kg/injection, schedule: Q01DX001 (ip), vehicle: other); 0 of 6 (dose: 300.0 mg/kg/injection, schedule: Q01DX001 (ip), vehicle: other).
As for `Sc1cc(Cl)c(Cl)cc1Cl`, the survivor count is on record as 0 of 6 (dose: 250.0 mg/kg/injection, schedule: Q01DX Z (ip), vehicle: methylcellulose (MC)) and 2 of 6 (dose: 400.0 mg/kg/injection, schedule: Q01DX001 (ip), vehicle: saline with Tween-80).
In the case of `N#CC(Cl)(Cl)CCl`, the survivor count is on record as 0 of 6 under setting [7] and 0 of 6 under setting [8].
Regarding `C#CCCCCCC#CCCCCCC#CCCCCCC#C`, under setting [6], the survivor count is listed as 3 of 6.
As for `CCCCCCCCCCCc1nc(N)nc(NCCCC)n1`, the survivor count (dose: 100.0 mg/kg/injection, schedule: Q04DX002 (ip), vehicle: Klucel (hydroxypropylcellulose) (HPC)) is 3 of 3 and 4 of 4.
Turning to `O=C(O)C1CCC2(CCCCC2)CC1`, the survivor count (dose: 400.0 mg/kg/injection, schedule: Q01DX009 (ip), vehicle: water) is 3 of 6.
As for `O=C(O)/C=C\Cl`, for the setting “dose: 400.0 mg/kg/injection, schedule: Q04DX002 (ip), vehicle: saline”, the survivor count is reported as 1 of 3.
Turning to `CCOC(=O)n1cnc2ncnc(SC)c21`, for the setting “dose: 200.0 mg/kg/injection, schedule: Q01DX001 (ip), vehicle: carboxymethylcellulose (CMC)”, the survivor count was 2 of 4.
